# Test results published in publication PMC12308066.
# Amino acid sequences for entries named in this document (tags omitted).
# UniProt P04150: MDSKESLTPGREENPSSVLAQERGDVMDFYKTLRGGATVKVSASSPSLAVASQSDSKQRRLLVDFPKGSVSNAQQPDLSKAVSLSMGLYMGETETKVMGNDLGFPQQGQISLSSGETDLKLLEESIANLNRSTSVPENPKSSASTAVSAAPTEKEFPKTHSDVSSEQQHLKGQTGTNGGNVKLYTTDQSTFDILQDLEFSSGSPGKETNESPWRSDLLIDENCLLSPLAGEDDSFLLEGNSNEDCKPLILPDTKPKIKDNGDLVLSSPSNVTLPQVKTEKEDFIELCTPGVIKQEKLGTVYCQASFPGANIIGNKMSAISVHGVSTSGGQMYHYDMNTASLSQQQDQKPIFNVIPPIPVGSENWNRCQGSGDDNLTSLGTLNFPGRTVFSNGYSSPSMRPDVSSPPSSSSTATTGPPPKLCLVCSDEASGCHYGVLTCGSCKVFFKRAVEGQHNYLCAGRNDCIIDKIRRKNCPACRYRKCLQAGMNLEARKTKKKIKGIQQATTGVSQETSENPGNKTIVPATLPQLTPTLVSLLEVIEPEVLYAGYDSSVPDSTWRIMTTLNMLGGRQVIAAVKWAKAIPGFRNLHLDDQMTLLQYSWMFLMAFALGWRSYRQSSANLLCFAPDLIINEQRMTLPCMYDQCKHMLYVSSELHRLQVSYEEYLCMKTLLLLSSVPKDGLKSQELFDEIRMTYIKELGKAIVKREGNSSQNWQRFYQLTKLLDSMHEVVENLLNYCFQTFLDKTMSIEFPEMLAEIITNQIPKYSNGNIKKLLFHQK
# These are yes or no findings as the source states them, for the method shown. Binding seen in cells or lysates may run through a third protein. Some entries that bind do so weakly or less than the wild type. Sequences can lack the tags named with a protein.
# Molecular target: nuclear receptor subfamily 3 group C member 1 (NR3C1), HA-tagged (UniProt P04150)
# Assay: co-IP; CR cell lines; NR3C1-HA and OGT-Flag cotransfected; NP-40 lysate; anti-HA or anti-Flag antibody or species-matched IgG overnight at 4 °C, protein A/G magnetic beads; Western blot
binder,measurement,value
"O-GlcNAc transferase (OGT), Flag-tagged (enzyme, UniProt O15294 1-1046) MASSVGNVADSTEPTKRMLSFQGLAELAHREYQAGDFEAAERHCMQLWRQEPDNTGVLLLLSSIHFQCRRLDRSAHFSTLAIKQNPLLAEAYSNLGNVYKERGQLQEAIEHYRHALRLKPDFIDGYINLAAALVAAGDMEGAVQAYVSALQYNPDLYCVRSDLGNLLKALGRLEEAKACYLKAIETQPNFAVAWSNLGCVFNAQGEIWLAIHHFEKAVTLDPNFLDAYINLGNVLKEARIFDRAVAAYLRALSLSPNHAVVHGNLACVYYEQGLIDLAIDTYRRAIELQPHFPDAYCNLANALKEKGSVAEAEDCYNTALRLCPTHADSLNNLANIKREQGNIEEAVRLYRKALEVFPEFAAAHSNLASVLQQQGKLQEALMHYKEAIRISPTFADAYSNMGNTLKEMQDVQGALQCYTRAIQINPAFADAHSNLASIHKDSGNIPEAIASYRTALKLKPDFPDAYCNLAHCLQIVCDWTDYDERMKKLVSIVADQLEKNRLPSVHPHHSMLYPLSHGFRKAIAERHGNLCLDKINVLHKPPYEHPKDLKLSDGRLRVGYVSSDFGNHPTSHLMQSIPGMHNPDKFEVFCYALSPDDGTNFRVKVMAEANHFIDLSQIPCNGKAADRIHQDGIHILVNMNGYTKGARNELFALRPAPIQAMWLGYPGTSGALFMDYIITDQETSPAEVAEQYSEKLAYMPHTFFIGDHANMFPHLKKKAVIDFKSNGHIYDNRIVLNGIDLKAFLDSLPDVKIVKMKCPDGGDNADSSNTALNMPVIPMNTIAEAVIEMINRGQIQITINGFSISNGLATTQINNKAATGEEVPRTIIVTTRSQYGLPEDAIVYCNFNQLYKIDPSTLQMWANILKRVPNSVLWLLRFPAVGEPNIQQYAQNMGLPQNRIIFSPVAPKEEHVRRGQLADVCLDTPLCNGHTTGMDVLWAGTPMVTMPGETLASRVAASQLTCLGCLELIAKNRQEYEDIAVKLGTDLEYLKKVRGKVWKQRISSPLFNTKQYTMELERLYLQMWEHYAAGNKPDHMIKPVEVTESA",binding,binds
